Measurements from US6574495B1, “Para-hydrogen labelled agents and their use in magnetic resonance imaging” (Amersham Health AS, priority 1997, dated 2003).

Experiment: Para-hydrogen hydrogenation with homogeneous rhodium catalyst, NMR enhancement effect (Example 2)
Conditions: para-hydrogen and homogeneous rhodium catalyst, about 20 seconds

Row | SMILES | ^13C enhancement (cis C═C product) | ^1H enhancement
1 | CCOC(=O)C#CC(=O)OCC [EtOOC—C≡C—COOEt] | ~500 | 
2 | C#Cc1ccccc1 [Ph—C≡CH] |  | about 200
